# Measurements taken from PubChem BioAssay AID720535 (National Center for Advancing Translational Sciences (NCATS), 2013).
# The whole screen tested about 1,600 compounds, of which about 420 (26%) were called active. This list was built around the results that the source calls inconclusive (neither active nor inactive); the mix of calls is not that of the screen. Calls come from the whole dose curve; as a rule, active = well fitted inhibition curve with a large enough effect; inconclusive = small, poorly fitted or top-dose-only effect; inactive = flat fitted curve, though single readings scatter. Where the call is inconclusive, the potency comes from a doubtful curve fit.
# Assay: qHTS for Inhibitors of TGF-b: Cytotox Counterscreen for Cherry Picks; note: nearly all actives have a fitted effect of over 70% in size
# Conditions: HepG2 CAGA-GFP viability, ATP luminescence, 18 h, cells stimulated with TGF-beta, 500 pg/mL; activity, negative = cytotoxicity: at 46.1 µM (top of the series)
# Procedure, shortened: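 HepG2 cells carrying a CAGA-GFP reporter, seeded at 1000 per well in DMEM/1% FBS; compounds plus TGF-beta (500 pg/mL) for 18 h; viability by CellTiter-Glo.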
# Potency is the fitted concentration of half-maximal effect.
SMILES,Potency,"activity, negative = cytotoxicity"
Brc1cccc(-c2nc3ccc(Br)cn3c2Cc2ccsc2)c1,"inconclusive: 18.4 µM [inhibitor, single point]",–
Cc1ccccc1OCCNC(=O)c1ccccc1Sc1ccccc1C#N,–,inactive: -6.29%
Cc1ccc(Nc2nc(-c3c(C)nc4ccccn34)cs2)cc1,"inconclusive: 16.4 µM [inhibitor, single point]",–
O=C(c1ccco1)N1CCN(c2ncnc3scc(-c4ccc(F)cc4)c23)CC1,–,inactive: 1.49%
CCCC(=O)NC(c1ccc(Cl)cc1)c1ccc2cccnc2c1O (configuration not stated),"inconclusive: 0.517 µM [inhibitor, full curve, poor fit]",–
Cc1nnc(Sc2cc(NCCCO)c([N+](=O)[O-])c3nonc23)s1,active: 23.1 µM,–
Cc1ccc(Nc2nc(-c3cccnc3)nc3ccccc23)cc1,"inconclusive: 1.3 µM [inhibitor, full curve, poor fit]",–
O=C(COc1ccccc1)N[C@@H]1c2ccccc2CC[C@H]1OCc1ccccc1,"inconclusive: 29.1 µM [inhibitor, single point]",–
CCc1ccc(CCC(=O)Nc2ncc(Cc3ccccc3Cl)s2)o1,–,inactive: -18.7%
CCOc1ccc(CCN2C(=S)N([C@@H](Cc3ccc(O)cc3)CN3CCC[C@@H]3CN3C(=S)NC[C@@H]3CC(C)C)C[C@@H]2Cc2ccccc2)cc1,–,inactive: -3.17%
CN(C)c1ccc(-c2nn3c(-c4ccccc4Cl)nnc3s2)cc1,–,inactive: -4.46%
CN(C)S(=O)(=O)c1ccc(Cl)c(NC(=O)CN2CCC(Cc3ccccc3)CC2)c1,"inconclusive: 25.9 µM [inhibitor, single point]",–
CSc1ccccc1NC(=O)C(C)N(C)CC(=O)N1CCN(Cc2ccccc2)CC1 (configuration not stated),–,inactive: -0.0577%
O=C(c1ccco1)N1CCCC(c2nc(-c3ccc(S(=O)(=O)NCc4ccccc4)cc3)no2)C1 (configuration not stated),"inconclusive: 16.4 µM [inhibitor, single point]",–
COc1ccc(CN2CCN(c3ncnc4scc(-c5ccc(F)cc5)c34)CC2)cc1,"inconclusive: 29.1 µM [inhibitor, single point]",–
COc1cccc(C2C3=C(N=c4s/c(=C\c5cccc(O)c5)c(=O)n42)c2ccccc2CC3)c1OC (configuration not stated),"inconclusive: 29.1 µM [inhibitor, single point]",–
NC(=O)CC(NC(=O)Cc1cccc2ccccc12)c1ccc(N2CCc3ccccc3C2)c([N+](=O)[O-])c1 (configuration not stated),"inconclusive: 16.4 µM [inhibitor, partial curve]",–
CCOC(=O)c1ccc(-n2[nH]c(-c3ccccc3)cc2=O)cc1,"inconclusive: 18.4 µM [inhibitor, single point]",–
OC(CNCC(c1ccc(Cl)cc1Cl)c1c[nH]c2ccccc12)c1ccccc1 (configuration not stated),active: 16.4 µM,–
COc1ccc(C2=NNC(=Nc3cc(S(=O)(=O)N(C)C)ccc3C)SC2)c(OC)c1,"inconclusive: 6.51 µM [inhibitor, full curve]",–
Cc1ccc(S(=O)(=O)N2CCCCC2)cc1C(=O)OC1CCCCC1=O (configuration not stated),–,inactive: 7.02%
O=C(C[C@@H]1C/C=C\C[C@@H](Cc2ccc(F)cc2)C(=O)OC[C@@H](Cc2ccccc2)NC1=O)N[C@H](CO)Cc1ccccc1,–,inactive: 6.79%
CCC(C)NS(=O)(=O)c1ccc(NC(=O)C(Sc2ccccc2)c2ccccc2)cc1 (configuration not stated),"inconclusive: 14.6 µM [inhibitor, partial curve]",–

SMILES,Potency,"activity, negative = cytotoxicity"
Cc1ccc(S(=O)(=O)N2CCN(CCc3ccccc3)CC2)c(C)c1,"inconclusive: 16.4 µM [inhibitor, single point]",–
Cc1ccc(Cl)cc1N1CCN(C(=O)c2cc3c(=O)[nH]c4ccccc4c3n2C)CC1,"inconclusive: 3.26 µM [inhibitor, full curve]",–
CCOc1ccccc1C1C2=C(COC2=O)Nc2cc3c(cc21)OCO3 (configuration not stated),–,inactive: -23.3%
C=CCNC(=S)N/N=C(\C)c1ccccn1,"inconclusive: 0.58 µM [inhibitor, full curve, poor fit]",–
O=C(c1cc(-c2ccccc2)n[nH]1)N1CCc2c([nH]c3ccccc23)C1c1ccccn1 (configuration not stated),"inconclusive: 23.1 µM [inhibitor, single point]",–
COc1ccc(-c2nc3ccc(Br)cn3c2Cc2cccc(Cl)c2)cc1OC,"inconclusive: 29.1 µM [inhibitor, single point]",–
COc1ccc(-c2[nH]ncc2CN2CCC(O)(c3ccc(Cl)cc3)CC2)cc1,"inconclusive: 10.3 µM [inhibitor, partial curve]",–
C[C@]12c3[nH]c4cc(-c5ccco5)ccc4c3CCN1C(=O)[C@@H](CC(=O)NCCC1=CCCCC1)C[C@@H]2C(=O)N1CCOCC1,"inconclusive: 25.9 µM [inhibitor, single point]",–
O=C(c1cc(-c2ccccc2Cl)nc2ccc(Br)cc12)N1CCN(c2ccccn2)CC1,"inconclusive: 13 µM [inhibitor, partial curve]",–
O=C(Nc1ccc2nc3n(c(=O)c2c1)CCCCC3)c1c(F)ccc([N+](=O)[O-])c1F,active: 2.59 µM,–
NC(=O)CC(NC(=O)Cc1ccc(Br)cc1)c1ccc(N2CCN(c3ccccn3)CC2)c([N+](=O)[O-])c1 (configuration not stated),"inconclusive: 29.1 µM [inhibitor, single point]",–
Cc1ccccc1C(=O)N1CCN(c2ccc(NC(=O)c3ccc([N+](=O)[O-])o3)cc2)CC1,active: 16.4 µM,–
Cc1ccc(-c2ccc(CN3C(C(C)C)C(=O)N(Cc4cn(CCC5OCCO5)nn4)CCS3(=O)=O)cc2)c(C)c1 (configuration not stated),"inconclusive: 29.1 µM [inhibitor, single point]",–
CCOc1ccc(Cl)cc1-c1cc(C(=O)NCc2cc(C(F)(F)F)cc(C(F)(F)F)c2)[nH]n1,"inconclusive: 18.4 µM [inhibitor, single point]",–
Cc1cc(C)cc(Oc2coc3cc(OC(=O)c4cccs4)ccc3c2=O)c1,–,inactive: -8.76%
Cc1ccc(Nc2nc(NCc3cccs3)nc3ccsc23)c(C)c1,"inconclusive: 20.6 µM [inhibitor, single point]",–
CCOC(=O)C1=C(CC)Nc2ccccc2N=C1NC(=O)Nc1ccc(Cl)c(Cl)c1,"inconclusive: 18.4 µM [inhibitor, single point]",–
O=C(C#Cc1ccccc1)Nc1cccc(F)c1,active: 6.51 µM,–
O=C(c1ccc2c3c(cccc13)CC2)C1CCCN(Cc2ccncc2)C1 (configuration not stated),–,inconclusive: -32.8% [inhibitor]
Cc1ccccc1OCC(O)CNC1CCC(NCC(O)COc2ccccc2C)CC1 (configuration not stated),active: 5.17 µM,–
CC(NC(=O)CC(c1ccccc1)c1cc(Cl)ccc1O)c1ccccc1 (configuration not stated),active: 23.1 µM,–
CCC(=O)NC(c1ccc(OC)cc1)c1cc(Cl)c2cccnc2c1O (configuration not stated),"inconclusive: 0.731 µM [inhibitor, full curve]",–
CCc1noc(C)c1C(=O)Nc1nc(-c2ccc(Cl)cc2Cl)cs1,active: 14.6 µM,–

SMILES,Potency,"activity, negative = cytotoxicity"
Cc1nn(-c2nccs2)c2c1C(=O)CC(C)(C)C2Br (configuration not stated),"inconclusive: 29.1 µM [inhibitor, single point]",–
Cc1noc(C)c1COc1ccccc1C(=O)N(C)Cc1ccc(C(C)(C)C)cc1,"inconclusive: 18.4 µM [inhibitor, single point]",–
COc1ccc(C(CCNCc2ccc(F)cc2)c2ccc(F)cc2)cc1 (configuration not stated),active: 16.4 µM,–
O=C(NCc1ccccc1)c1nc(S(=O)(=O)Cc2ccccc2)ncc1Cl,active: 5.17 µM,–
C=CCNc1ncnc2c1ncn2C1OC(CO)C(O)C1O (configuration not stated),"inconclusive: 29.1 µM [inhibitor, single point]",–
Cc1ccc(NC(=O)Nc2nnc(-c3ccncc3)s2)cc1C,"inconclusive: 8.2 µM [inhibitor, partial curve]",–
CCN(C(=O)c1cc2c(C)nc3ccccc3c2o1)c1cc(Cl)ccc1OC,–,inactive: -17.5%
CC(=O)Nc1ccc(NC2=C(Cl)C(=O)c3ccccc3C2=O)cc1,active: 14.6 µM,–
C(=C\c1ccccc1)/CN1CCN(C(c2ccnc3ccccc23)c2nnnn2C2CCCCC2)CC1 (configuration not stated),"inconclusive: 13 µM [inhibitor, partial curve]",–
O=C(COc1cccc2ccccc12)Nc1ccc(Cl)cc1C(=O)O,active: 8.2 µM,–
CCn1c(=O)c(C(=O)Nc2nc3ccccc3[nH]2)c(O)c2ccccc21,"inconclusive: 18.4 µM [inhibitor, single point]",–
Cc1nn(-c2ccc(F)cc2)c(C)c1NS(=O)(=O)c1ccc2ccccc2c1,"inconclusive: 25.9 µM [inhibitor, single point]",–
COc1ccc(-c2cc(C(=O)N(C)CC(=O)Nc3cccc(F)c3)c3ccccc3n2)cc1,"inconclusive: 29.1 µM [inhibitor, single point]",–
Cc1ccc2nc(/N=C(\N)NC(=O)NC3CCCCC3)nc(C)c2c1,"inconclusive: 20.6 µM [inhibitor, single point]",–
CCOC(=O)C1=C(N)N(c2ccc(C)cc2)C2=C(C(=O)CCC2)C1c1cccs1 (configuration not stated),–,inactive: -23.3%
Cn1nnnc1SC(C(=O)Nc1cccc(C(F)(F)F)c1)c1ccccc1 (configuration not stated),–,inactive: -20.5%
COc1ccc(Nc2nc(-c3ccccc3)nc3ccccc23)cc1,–,inactive: -25.4%
COc1ccc(CNC(=O)c2cccc(-c3ccc(C)c4ccccc34)n2)cc1,"inconclusive: 29.1 µM [inhibitor, single point]",–
Cc1ccc(CNc2ccc(O)cc2)cc1,"inconclusive: 29.1 µM [inhibitor, single point]",–
CC(C)CCCCCCCCCCCCC(=O)NCC(=O)NC1C(C)OC(Nc2ncnc3nc[nH]c23)C(O)C1O (configuration not stated),"inconclusive: 1.46 µM [inhibitor, full curve]",–
CCCCCOC(=O)c1[nH]c2c(c1C)C(=O)CC(c1ccco1)C2 (configuration not stated),–,inactive: -2.37%

# Quoted from the listing.
# Under Potency, C=CCNc1ncnc2c1ncn2C1OC(CO)C(O)C1O (configuration not stated) is entered as inconclusive: 29.1 µM [inhibitor, single point]
# Under activity, negative = cytotoxicity, CCN(C(=O)c1cc2c(C)nc3ccccc3c2o1)c1cc(Cl)ccc1OC is entered as inactive: -17.5%
# Under Potency, COc1ccc(-c2cc(C(=O)N(C)CC(=O)Nc3cccc(F)c3)c3ccccc3n2)cc1 is entered as inconclusive: 29.1 µM [inhibitor, single point]
# Under Potency, O=C(NCc1ccccc1)c1nc(S(=O)(=O)Cc2ccccc2)ncc1Cl is entered as active: 5.17 µM
